{"source": "paper PMC12181424", "about": "(Scientific Reports, 2025)", "key": {"[1]": {"assay": "general procedure: Fmoc solid-phase peptide synthesis; H-L-Ile-2-chlorotrityl resin (0.74 mmol/g); HATU/DIPEA", "settings": "whole synthesis, scale 0.779 mmol"}, "[2]": {"assay": "general procedure: Fmoc solid-phase peptide synthesis; 2-chlorotrityl resin; HATU/DIPEA", "settings": "whole synthesis, overall, scale 0.779 mmol"}}, "data": [{"substance": "(2-((S)-5-guanidino-2-(3-methyl-2-((S)-2-((S)-2-methylbutanamido)-3-phenylpropanamido)but-2-enamido)pentanamido)-3-methylbut-2-enoyl)-L-leucine", "values": [{"measurement": "isolated mass", "setting": "[1]", "value": 54.5, "unit": "mg"}, {"measurement": "isolated yield", "setting": "[2]", "value": 17, "unit": "%"}]}]}
